Values from PubChem BioAssay AID1259308 (NCATS, 2017).
Aim: 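Genes whose loss raises luciferase production in HEK293 cells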 (primary screen). System: human HEK293 embryonic kidney cells stably expressing firefly luciferase (HEK-CMV-Luc2-Hygro). Knock-down reagent: single siRNA against human genes, 0.8 pmol siRNA per well. Duration: 72 h. Measurement: 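Reporter luminescence and viable-cell signal on separate replicate plates, given as percent of non-targeting control and median/MAD z-scores, plus per-cell luciferase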. Scale: total luciferase, z-score and total luciferase, % of control: higher = more reporter protein produced. Rule for the call: 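An siRNA counts as active if its total luciferase robust z-score exceeds 3; genes with two or more such siRNAs out of three were retested with fresh siRNAs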. Meaning of the calls: active = raised luciferase; inactive = no rise.
This is an unselected part of about 59,000 deposited reagents. About 1,510 of them (2.6%) count as active. 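Calls use total luciferase alone and ignore viability, so some active siRNAs may act by altering cell number.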 Entries without a mark were called inactive. Reagents against one gene are numbered here. Further read-outs or replicates are left out here. No sequences are given here.

| gene | siRNA no. | total luciferase, z-score | total luciferase, % of control |
| --- | --- | --- | --- |
| IRX1 | 1 | 1.93 | 120 |
| IRX1 | 2 | -0.645 | 69.1 |
| IRX1 | 3 | 0.327 | 88.4 |
| PUS7L | 1 | -0.167 | 78.6 |
| PUS7L | 2 | 0.163 | 85.1 |
| PUS7L | 3 | -0.177 | 78.4 |
| SPATA45 | 1 | -0.76 | 66.8 |
| SPATA45 | 2 | 0.382 | 89.5 |
| SPATA45 | 3 | 0.483 | 91.5 |
| UCP1 | 1 | -1.04 | 61.2 |
| UCP1 | 2 | -0.687 | 68.2 |
| UCP1 | 3 | -0.337 | 75.2 |
| ERBB2 | 1 | -1.61 | 49.8 |
| ERBB2 | 2 | -0.267 | 76.6 |
| ERBB2 | 3 | 0.176 | 85.4 |
| LOC728688 | 1 | -0.929 | 63.4 |
| LOC728688 | 2 | -2.07 | 40.8 |
| LOC728688 | 3 | 1.6 | 114 |
| AGBL1-AS1 | 1 | -1.42 | 53.6 |
| AGBL1-AS1 | 2 | -0.54 | 71.1 |
| AGBL1-AS1 | 3 | 0.382 | 89.5 |
| CYP7B1 | 1 | -0.51 | 71.7 |
| CYP7B1 | 2 | -0.528 | 71.4 |
| CYP7B1 | 3 | -0.16 | 78.7 |
| SCN8A | 1 | -0.822 | 65.5 |
| SCN8A | 2 | 0.391 | 89.7 |
| SCN8A | 3 | 0.609 | 94 |
| MXRA7 | 1 | 1.76 | 117 |
| MXRA7 | 2 | -0.912 | 63.7 |
| MXRA7 | 3 | -1.92 | 43.7 |
| FRMD4A | 1 | 0.0423 | 82.7 |
| FRMD4A | 2 | -0.168 | 78.5 |
| FRMD4A | 3 | 0.152 | 84.9 |
| STAG2 | 1 | -0.0818 | 80.3 |
| STAG2 | 2 | -0.21 | 77.7 |
| STAG2 | 3 | -0.13 | 79.3 |
| PARP6 | 1 | 0.00782 | 82 |
| PARP6 | 2 | 0.838 | 98.5 |
| PARP6 | 3 | 2.06 | 123 |

Sorted by “total luciferase, z-score” (high to low): 2 of the entries above
| gene | siRNA no. | total luciferase, z-score | total luciferase, % of control |
| --- | --- | --- | --- |
| AGBL1-AS1 | 3 | 0.382 | 89.5 |
| AGBL1-AS1 | 2 | -0.54 | 71.1 |
